No constants are given. Whether binding was seen depends on the method and setting. In cells and extracts the contact can be indirect. Here binding means that the protein was enriched with, or labelled near, the bait; the list need not be complete.
Target: T1, Syt13-BirA recombinant protein (mouse) (UniProt Q9EQT6)
T1 sequence: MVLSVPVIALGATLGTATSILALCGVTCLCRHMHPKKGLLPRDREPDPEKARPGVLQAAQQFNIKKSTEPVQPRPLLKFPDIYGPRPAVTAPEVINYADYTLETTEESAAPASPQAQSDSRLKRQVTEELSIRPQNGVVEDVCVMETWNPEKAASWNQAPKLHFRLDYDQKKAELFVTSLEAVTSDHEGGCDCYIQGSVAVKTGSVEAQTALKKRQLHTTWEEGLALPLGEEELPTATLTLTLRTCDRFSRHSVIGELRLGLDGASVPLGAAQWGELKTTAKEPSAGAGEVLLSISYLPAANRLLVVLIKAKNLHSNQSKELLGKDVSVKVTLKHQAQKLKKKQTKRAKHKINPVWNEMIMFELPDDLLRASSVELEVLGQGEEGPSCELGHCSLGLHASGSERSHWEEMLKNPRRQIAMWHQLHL
Experiment: proximity labelling; BioID: MDCK cells stably expressing Syt13-BirA (control: Syt13), 50 µM biotin for 16 h; lysate on NeutrAvidin agarose beads; western blot

Sequences of proteins named here, by UniProt entry; tags and fusion partners are left off.
UniProt A0A8I3MKE1: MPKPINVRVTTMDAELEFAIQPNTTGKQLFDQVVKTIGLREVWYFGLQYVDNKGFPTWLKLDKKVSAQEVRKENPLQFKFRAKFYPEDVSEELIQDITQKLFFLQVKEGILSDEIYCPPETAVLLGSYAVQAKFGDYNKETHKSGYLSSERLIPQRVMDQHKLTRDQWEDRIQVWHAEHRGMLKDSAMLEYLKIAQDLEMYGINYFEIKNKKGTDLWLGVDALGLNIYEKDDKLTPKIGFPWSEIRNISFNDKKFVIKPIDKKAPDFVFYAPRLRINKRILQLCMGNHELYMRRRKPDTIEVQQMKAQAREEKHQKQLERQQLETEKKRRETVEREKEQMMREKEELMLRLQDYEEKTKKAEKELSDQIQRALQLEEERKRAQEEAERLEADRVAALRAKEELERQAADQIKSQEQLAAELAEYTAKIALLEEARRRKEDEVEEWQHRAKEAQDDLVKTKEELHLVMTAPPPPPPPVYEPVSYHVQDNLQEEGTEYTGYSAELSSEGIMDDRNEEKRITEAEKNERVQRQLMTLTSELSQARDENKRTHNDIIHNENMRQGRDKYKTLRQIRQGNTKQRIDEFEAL

| binding | Substance |
| --- | --- |
| binds | EBP50 (canine (endogenous in MDCK)) |
| binds | Ezrin (from UniProt A0A8I3MKE1 1-586) |
| binds | Merlin (canine (endogenous in MDCK)) |
| binds | atypical protein kinase C (canine (endogenous in MDCK)) |

Source: paper PMC9352765
